The target in this assay is HINT2 (as used in the co-IP with SLC25A51) (UniProt Q9BX68). As to the kind of experiment: co-IP; co-IP of HINT2 and SLC25A51 (Supplementary Fig. 6j); cells and constructs not told in the text shown.

The chains behind the UniProt entries cited, without tags or fusion partners. Residues count along the entry.
UniProt Q9BX68, residues 18-163: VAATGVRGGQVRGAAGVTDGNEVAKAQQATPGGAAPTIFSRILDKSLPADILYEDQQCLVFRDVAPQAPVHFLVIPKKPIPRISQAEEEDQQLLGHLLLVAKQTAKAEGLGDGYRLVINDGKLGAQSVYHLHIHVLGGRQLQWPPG

No constants are given. Whether binding was seen depends on the method and setting. In cells and extracts the contact can be indirect.

B1: Solute carrier family 25 member 51 (SLC25A51) (protein, UniProt Q9H1U9 1-297)
chain: MMDSEAHEKRPPILTSSKQDISPHITNVGEMKHYLCGCCAAFNNVAITFPIQKVLFRQQLYGIKTRDAILQLRRDGFRNLYRGILPPLMQKTTTLALMFGLYEDLSCLLHKHVSAPEFATSGVAAVLAGTTEAIFTPLERVQTLLQDHKHHDKFTNTYQAFKALKCHGIGEYYRGLVPILFRNGLSNVLFFGLRGPIKEHLPTATTHSAHLVNDFICGGLLGAMLGFLFFPINVVKTRIQSQIGGEFQSFPKVFQKIWLERDRKLINLFRGAHLNYHRSLISWGIINATYEFLLKVI
As to B1, the binding result is “no binding”.

(Values after paper PMC12130462.)
